Assay results from PubChem BioAssay AID1794845 (National Center for Advancing Translational Sciences (NCATS), 2023).
The campaign covered roughly 6,900 compounds. Fewer than 10 were called active. Calls come from the whole dose curve; as a rule, active = well fitted curve in the direction sought with a large enough effect; inconclusive = small, poorly fitted or top-dose-only effect, or another doubt; inactive = no such curve, though single readings can be large or run the other way. This is one part of the list.

The chains behind the UniProt entries cited, without tags or fusion partners. Where a name states a change or a piece, a line headed by the entry shows the natural chain unless it says otherwise.
UniProt C7C422: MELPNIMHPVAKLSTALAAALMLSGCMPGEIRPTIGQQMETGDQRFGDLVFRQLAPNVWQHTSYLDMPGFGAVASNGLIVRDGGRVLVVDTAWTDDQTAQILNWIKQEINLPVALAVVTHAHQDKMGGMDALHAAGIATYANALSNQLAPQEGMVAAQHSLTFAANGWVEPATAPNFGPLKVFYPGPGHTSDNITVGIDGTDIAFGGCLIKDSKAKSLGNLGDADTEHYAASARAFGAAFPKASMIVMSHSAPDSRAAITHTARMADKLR

Molecular target: Metallo-beta-lactamase type 2 (Klebsiella pneumoniae) (UniProt C7C422)
Assay: qHTS to identify inhibitors of the New Delhi Metallo-beta-lactamase (NDM): primary screen against the NCATS Gemini Collection; note: % of control where 0% means no effect
Details: NDM-1 enzyme, meropenem hydrolysis, absorbance 300 nm; at 38.4 µM (top of the series) unless noted
Procedure, shortened: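 Meropenem hydrolysis (50 uM final) by 2 nM NDM-1 read as 300 nm absorbance after 30 min, following >30 min compound–enzyme preincubation in HEPES pH 7.0 with 1 uM ZnSO4 and 0.01% Tween20.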

Activity % (negative = inhibition), inactive:
O=C(c1cc(CN2CCC(Cc3ccccc3)CC2)on1)N1CCN2CCCC2C1 (stereo unspecified) 26.7%
CCN(Cc1nccn1C)C(=O)c1cc(-c2cnc(C)nc2)nc2ccc(F)cc12 1.51%
CCC(C(=O)NCc1c(C)ncc2c1CCNC2)n1cccn1 (stereo unspecified) 3.89%
O=C(C1CCOCC1)N1CCOC[C@H](Oc2ccccc2)C1 -5.25% [at 57.5 µM]
O=C(O)c1ccnc(-c2ccnc(NCCCN3CCCC3=O)n2)c1 15.2%
Cc1ccc(Nc2ccnc(N3CCC(C(=O)NCc4ccc(F)cc4)CC3)n2)cc1 8.62%
OCC1(CN2CCCC2)CCN(Cc2cnn(-c3ccccc3)c2)CC1 1.86%
COc1cccc(CNC(=O)C2CCCCc3nnc(-c4ccccc4)n32)c1 (stereo unspecified) -4.37%
Cc1n[nH]c(C)c1CNC(=O)C1CCCCC(=O)N1 (stereo unspecified) -0.828%
CN(Cc1ccccc1)C1(C(=O)NC2CCC(O)CC2)Cc2ccccc2C1 (stereo unspecified) -8.52%
CN1CCN(c2nc3c(c(=O)[nH]2)CCN(Cc2cccnc2)CC3)CC1 -1.45%
O=C1CCC2(CCCO2)CCN1Cc1ccc(C(F)(F)F)c(F)c1 (stereo unspecified) 14.6%
C=CC[C@@H]1CC=C[C@@H](C)N1C(=O)c1cc(OC)ccc1OC1CCN(C(=O)C2CC2)CC1 -13.8%
COc1ccc(S(=O)(=O)N2C[C@@H]3C[C@H](C2)c2c(NC(=O)c4ccccc4)ccc(=O)n2C3)cc1 -2.64%
CC1=C[C@@H](CNC(=O)COc2ccccc2)[C@H](C(C)C)C[C@H]1CC(=O)NCCN(C)C -1.64% [at 57.5 µM]
CC1(C(=O)Nc2ccccc2)CN(Cc2ccccc2)Cc2ccc(N3CCOCC3)nc21 (stereo unspecified) 0.823%
CCOC(=O)c1cnc(N2CC3CCC(C2)N3CC(F)(F)F)s1 23.8%
COCCn1nc2n(c1=O)CCN(Cc1cccc(OC)n1)CC2 -4.84%
CCn1cc(-c2ccncc2)cc1C(=O)NCc1ccc(OC(C)C)cc1 3.84%
Cc1ccsc1C(=O)NC1CCN(c2cc(-c3ccc(F)cc3)[nH]n2)C1 (stereo unspecified) -1.05%
O=C(Cn1ccn2nc(-c3ccc(F)cc3)c(CO)c2c1=O)Nc1ccc(F)cc1F 1.87%
CCS(=O)(=O)N1CCC2(CC1)CN(c1cccc(F)c1)C2c1ccccc1 (stereo unspecified) 0.315%
CCn1nc(C)cc1C(=O)N1CCOC[C@H](Oc2cccnc2)C1 9.19% [at 57.5 µM]
Cc1nc(N2CCCC2)nc(N2CCC3(CC2)OCCCC3O)c1C (stereo unspecified) 5.04%
O=[S+]([O-])(NCC1CN(Cc2ccc3[nH]ccc3c2)CC12CN(c1ccccc1)C2)c1ccccc1 (stereo unspecified) -2.28%
CC(C)Cn1nc(C(=O)O)c2c1CCN(C(=O)CC(C)c1ccccc1)C2 (stereo unspecified) 15.5%
Cc1cnc(-c2ccccc2)n1C1CCN(S(C)(=O)=O)CC1 -4.41%
NC1CCCCN(C(=O)c2ccc(Cn3cccn3)o2)C1 (stereo unspecified) 74.2%
COc1ccccc1C(=O)NC[C@@H]1C=C(C)[C@H](CC(=O)NCc2ccccn2)C[C@H]1C(C)C -0.339%
O=C(c1ccco1)N1CCCCC1c1nc(C2CC2)n[nH]1 (stereo unspecified) -0.0418%
CC(C)C1=NOC2(CCN([S+](=O)([O-])c3cccs3)C2)C1 (stereo unspecified) 5.1%
CCC(CC)C(=O)NC[C@H]1O[C@@H](CC(=O)N2CCC(C)CC2)[C@H](O)[C@@H]1O 9.85% [at 57.5 µM]
O=C(C[C@@H]1CCNC[C@@H]1Cc1cc(CN2CCCCC2)on1)NCc1cccs1 -0.0675% [at 57.5 µM]
CN(C)c1nc(-c2ccccc2)nc2c1CCN(C(=O)C1CCOC1)C2 (stereo unspecified) 9.83%
O=C(CCc1conc1-c1ccccc1F)NCc1cccc(C(F)(F)F)c1 -7.72%
COCCCN(CCC(=O)NCc1ccc2c(c1)OCO2)C(=O)c1cc(C)oc1C -9.84%
CN1CCCCCCN(C(=O)Cc2c[nH]c3ccccc23)[C@H]2CCC[C@H]2C1=O 2.1%
CCN1C(=O)C2CC3(CCN(S(C)(=O)=O)CC3)CN2C1=O (stereo unspecified) 21.2%
CCc1nnc(CN(CC)C(=O)c2cc(S(N)(=O)=O)ccc2F)o1 -0.28%
CCCc1nc(C(=O)NC(CC)c2ccc(S(C)(=O)=O)cc2)cs1 (stereo unspecified) 12.4%
COc1ccc(O[C@H]2COCCN(S(=O)(=O)c3ccc(OC)cc3)C2)cc1 31.3% [at 57.5 µM]
Cn1ccnc1-c1ccc(N2CC[C@@]3(O)CCN(S(C)(=O)=O)C[C@H]3C2)nn1 -3.73%
N#Cc1ccc(C(=O)N2CCC(Cc3nc(-c4cccnc4)n[nH]3)C2)cc1 (stereo unspecified) 3.07%
Cc1cnc(CCNS(=O)(=O)c2cn(C)cn2)n1C1CCC1 29.9%
CCc1ccccc1NC(=O)N1CCC(Oc2ncccc2NC)C1 (stereo unspecified) 21.4%
O=C(NC1CCN(c2nnc3ccccn23)CC1)c1ccc(Cl)s1 5.1%
COCCCNC(=O)c1cnc2c(c1)N(C(=O)Cc1cn(C)c3ccccc13)CCC2 13.8% [at 57.5 µM]
c1ccc(Cn2cc(CN3CCN(c4ccncc4)CC3)c(-c3cc4ccccc4o3)n2)cc1 0.373%
CCOc1cccc(CNC(=O)c2nnn3c2COC(c2ccc(C)cc2)C3)c1 (stereo unspecified) 8.52%
COCCc1noc(C2Cc3ccccc3N2C(=O)Nc2ccc3c(c2)OCCO3)n1 (stereo unspecified) 20.3%
COCCNC(=O)C[C@@H]1C[C@H]2O[C@H](CNCc3cccnc3OC)[C@@H](O)[C@H]2O1 -1.12% [at 57.5 µM]
N#CCn1ccn2nc3c(c2c1=O)CCCC3 9.39%
NC(=O)c1ccc(NC(=O)Cn2nc3c(cc2=O)CCCCC3)cc1 13.9%
O=C(c1ccc(C2CCCNC2)cc1)N1CCN(c2ccncc2)CC1 (stereo unspecified) 9.99%
O=C1NCCCCCN(C(=O)C2CCC2)[C@H]2CCCC[C@@H]12 -6.09%
O=C(Cc1cc2c(cc1Cl)OCCO2)N[C@@H]1COCC[C@@H]1OCC1CC1 2.65%
CCOC(=O)C1CCN(C(=O)c2cn3ccnc(-c4ccc(C)cc4)c3n2)CC1 17.4%
NC(=O)CN1CCC(C(=O)N2CCCC(CO)(CC3CC3)C2)CC1 (stereo unspecified) 10.6%
Cc1cc2c(cc1C(=O)N[C@H](c1ccccn1)C1CC(O)C1)OCCO2 (stereo partly specified) 7.26%
CCOc1cc(CN2CCC(C(Cc3ccccc3F)N(C)C(=O)c3cccs3)CC2)ccc1O (stereo unspecified) 4.72%
O=C(NC1CCCC1)N1CCC(Cc2nncn2CC2CC2)CC1 15.5%
O=C(C1CCOCC1)N1CCC(c2nc(C3CCOCC3)no2)CC1 -3%
c1ccc(-c2nc(CC3CCCNC3)no2)nc1 (stereo unspecified) 96.4%
C#CCNC(=O)C1CCc2nnc(CNC(=O)c3ccc(Cl)cc3Cl)n21 (stereo unspecified) 1.33%
Cc1cnc(C(=O)N(C)C2CCc3nn(CC4CC4)c(=O)n3CC2)cn1 (stereo unspecified) 7.74%
Cc1nc(C(C)C)ncc1C(=O)N1CCC2(CCCN(C)C2=O)C1 (stereo unspecified) -1.74%
Cc1cc(=O)n(CC(=O)NC(C)CCc2ccccc2)c(N2CCc3ccccc3C2)n1 (stereo unspecified) 1.39%
CC1=NOC2(CCN([S+](=O)([O-])c3c(C)noc3C)C2)C1 (stereo unspecified) 12.5% [at 57.5 µM]
CNC(=O)[C@@H]1CN(C(=O)CCc2ccc(OC)c(OC)c2)C[C@H]1CO 9.06%
CCCCCCN(CCC(=O)NCCc1ccccc1)C(=O)c1cc(C)oc1C 2.34%
CC(C(=O)N1CCN(c2cc(-c3ccccc3)[nH]n2)CC1)c1ccccc1 (stereo unspecified) -7.08%
COCCCn1c(=O)c(C(=O)NC2CC2)nc2cccnc21 12% [at 57.5 µM]
CNC(=O)[C@@H]1CN(C(=O)c2ccc(OC)cc2C)C[C@H]1COC -3.86%
CS(=O)(=O)Cc1ccc(-c2cccc(OCc3ccccc3F)c2)nc1 46.1%
CCN(CC)c1cc(CCC(=O)N2CCN(c3cccc(OC)c3)CC2)ccn1 14.2%
CCNc1ncnc2sc3c(c12)CCN(Cc1ccncc1)C3 12%
CCCn1cc(-c2ccnc(NC3CCN(Cc4cccnc4)CC3)n2)c(C)n1 -1.13%
CN(CCC1CCOCC1)C(=O)c1ccc(OC2CCN(C(=O)C3CC3)CC2)cc1 7.72%
O=S(=O)(Cc1ccccc1)N[C@H]1CO[C@H]2[C@@H]1OC[C@@H]2Nc1nccc(-c2cccc(F)c2)n1 -0.0409%
Fc1ccc(-c2noc([C@@H]3Cc4nc[nH]c4CN3CCCc3ccccc3)n2)cc1Cl 3.38%
Cc1nc(N2CCC(C(=O)NCC3CCCO3)CC2)cc(C(F)(F)F)n1 (stereo unspecified) 13.6%
CC(=O)Nc1ccc2c(c1)S(=O)(=O)N=C(CC(C)C)N2CC(C)C 17.7%
CCOC(=O)C(Cc1cccc(N2CCC(Nc3ccccc3)CC2)c1F)OC (stereo unspecified) 0.468%
O=C(c1cccs1)N1CCCC(Cc2noc(-c3cnccn3)n2)C1 (stereo unspecified) 0.91%
O=C(Cc1ccncc1)N1CC(F)(F)C[C@H]1c1nc(C2CC2)no1 -2.37%
O=C(Nc1ccccc1F)C1CCCN(Cc2cccc(-c3cccs3)c2)C1 (stereo unspecified) 1.32%

5 records drawn at random from the list so far, as already listed:
Activity % (negative = inhibition), inactive:
CC1=C[C@@H](CNC(=O)COc2ccccc2)[C@H](C(C)C)C[C@H]1CC(=O)NCCN(C)C -1.64% [at 57.5 µM]
CN(CCC1CCOCC1)C(=O)c1ccc(OC2CCN(C(=O)C3CC3)CC2)cc1 7.72%
CC1=NOC2(CCN([S+](=O)([O-])c3c(C)noc3C)C2)C1 (stereo unspecified) 12.5% [at 57.5 µM]
c1ccc(-c2nc(CC3CCCNC3)no2)nc1 (stereo unspecified) 96.4%
CNC(=O)[C@@H]1CN(C(=O)c2ccc(OC)cc2C)C[C@H]1COC -3.86%

An excerpt from above in order of count of non-hydrogen atoms, low to high:
Activity % (negative = inhibition), inactive:
c1ccc(-c2nc(CC3CCCNC3)no2)nc1 (stereo unspecified) 96.4%
Cc1cc2c(cc1C(=O)N[C@H](c1ccccn1)C1CC(O)C1)OCCO2 (stereo partly specified) 7.26%
Cc1cc(=O)n(CC(=O)NC(C)CCc2ccccc2)c(N2CCc3ccccc3C2)n1 (stereo unspecified) 1.39%
